This assay has as its target T1, RAB9 GTPase (UniProt P51151).
T1 sequence: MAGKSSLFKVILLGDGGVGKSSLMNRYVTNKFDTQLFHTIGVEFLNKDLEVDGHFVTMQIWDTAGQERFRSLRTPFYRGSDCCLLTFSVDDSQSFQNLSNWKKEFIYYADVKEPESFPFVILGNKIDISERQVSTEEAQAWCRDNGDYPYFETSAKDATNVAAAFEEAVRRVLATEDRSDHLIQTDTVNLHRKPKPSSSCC
As to the kind of experiment: affinity purification with mass spectrometry; IP-MS in 293 T cells; RAB9 as bait; no further conditions told.

Chains of the proteins cited; added tags and fusions are not shown.
UniProt P12235: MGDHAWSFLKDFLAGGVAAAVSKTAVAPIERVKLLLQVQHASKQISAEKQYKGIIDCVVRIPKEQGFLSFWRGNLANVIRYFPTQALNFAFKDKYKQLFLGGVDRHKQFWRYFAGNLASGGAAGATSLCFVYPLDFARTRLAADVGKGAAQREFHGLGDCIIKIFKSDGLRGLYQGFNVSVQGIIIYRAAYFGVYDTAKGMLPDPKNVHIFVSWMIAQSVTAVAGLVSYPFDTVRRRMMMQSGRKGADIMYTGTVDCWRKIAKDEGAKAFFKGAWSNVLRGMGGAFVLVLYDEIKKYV

Results are given in words; binding and its absence hold for the method and conditions named. In cells and extracts the contact can be indirect. These calls come from enrichment with a bait or labelling near it, and not all partners need be listed.

“Adenine nucleotide translocase 1 (from UniProt P12235 1-298)”: the binding result is “binds”.

(Values after PMC11984694.)
